Patent US7465842B2, “Enantioselective biotransformation for preparation of protein tyrosine kinase inhibitor intermediates” (Agouron Pharmaceuticals, Inc., priority 2004, dated 2008)
Some of these results come from one statement about several compounds together.

Assay: Enzyme screening: stereoselective hydrolysis (kinetic resolution) of racemic 1-(2,6-dichloro-3-fluorophenyl)ethyl acetate
Assay type: biochemical
Settings: selective for hydrolysis of (S)-acetate; 5% substrate load, 100 mM potassium phosphate buffer pH 7.2
Description: For example, for stereoselective hydrolysis of esters by biocatalysts, a program (Ee2 software-University of Graz) can accurately calculate the E value if the enantiomeric excess (ee) of either the alcohol or the ester at one particular enzymatic conversion are known. The ee value can be obtained, for example, from Equation 1. The [S] and [R] data can be obtained, for example, by HPLC.
The resolution of 1-(2,6-dichloro-3-fluorophenyl)ethyl acetate was carried out as follows. A 96-well plate prepared as described above was thawed for 5 minutes. 80 μL of potassium phosphate buffer (0.1 M, pH 7.2) was then dispensed into the wells using a multi-channel pipette. 10 μL of the substrate stock solution (50 mg/mL acetonitrile) was then added to each well via a multi-channel pipette, and the 96 reactions were incubated at 30° C. and 750 rpm. The reactions were sampled after 16 hours by the transfer of 25 μL of the reaction mixture into a new 96-well plate, which was then quenched by the addition of 150 μL of acetonitrile. The 96-well plate was then centrifuged, and the organic supernatant transferred from each well into another 96-well plate. Sampled reactions were then sealed using a penetrable mat cover and transferred to an HPLC system for analysis. The same plate was used to analyze the samples for both reactivity and enantioselectivity using alternating columns on the HPLC simultaneously. […]

B1: Subtilisin Carlsberg (protease from Bacillus licheniformis): commercially available hydrolase of the enzyme screening kit (protein, UniProt P00780 106-379, looked up)
Subtilisin Carlsberg: AQTVPYGIPLIKADKVQAQGFKGANVKVAVLDTGIQASHPDLNVVGGASFVAGEAYNTDGNGHGTHVAGTVAALDNTTGVLGVAPSVSLYAVKVLNSSGSGSYSGIVSGIEWATTNGMDVINMSLGGASGSTAMKQAVDNAYAKGVVVVAAAGNSGSSGNTNTIGYPAKYDSVIAVGAVDSNSNRASFSSVGAELEVMAPGAGVYSTYPTNTYATLNGTSMASPHVAGAAALILSKHPNLSASQVRNRLSSTATYLGSSFYYGKGLINVEAAAQ
E value: Low (<10)
